The values that follow come from US20090214663A1 (published 2009).

Sequences of proteins named here, by UniProt entry; tags and fusion partners are left off. Residues count along the entry.
UniProt Q09143: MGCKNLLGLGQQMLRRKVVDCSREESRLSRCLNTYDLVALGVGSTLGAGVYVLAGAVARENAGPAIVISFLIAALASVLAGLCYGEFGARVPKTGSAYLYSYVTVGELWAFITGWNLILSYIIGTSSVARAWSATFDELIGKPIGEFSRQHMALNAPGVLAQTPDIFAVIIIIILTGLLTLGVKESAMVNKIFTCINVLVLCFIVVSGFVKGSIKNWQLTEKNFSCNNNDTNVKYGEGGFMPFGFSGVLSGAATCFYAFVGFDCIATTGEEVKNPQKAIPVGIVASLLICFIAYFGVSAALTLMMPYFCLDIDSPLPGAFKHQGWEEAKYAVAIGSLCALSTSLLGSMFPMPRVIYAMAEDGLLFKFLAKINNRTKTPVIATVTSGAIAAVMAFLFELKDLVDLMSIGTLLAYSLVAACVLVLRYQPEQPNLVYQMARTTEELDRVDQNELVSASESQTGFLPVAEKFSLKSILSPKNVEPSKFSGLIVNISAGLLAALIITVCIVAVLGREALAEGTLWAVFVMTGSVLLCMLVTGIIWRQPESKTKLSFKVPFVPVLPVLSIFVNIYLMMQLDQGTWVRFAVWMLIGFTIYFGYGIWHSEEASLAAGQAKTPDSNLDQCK
UniProt P03385, residues 34-649: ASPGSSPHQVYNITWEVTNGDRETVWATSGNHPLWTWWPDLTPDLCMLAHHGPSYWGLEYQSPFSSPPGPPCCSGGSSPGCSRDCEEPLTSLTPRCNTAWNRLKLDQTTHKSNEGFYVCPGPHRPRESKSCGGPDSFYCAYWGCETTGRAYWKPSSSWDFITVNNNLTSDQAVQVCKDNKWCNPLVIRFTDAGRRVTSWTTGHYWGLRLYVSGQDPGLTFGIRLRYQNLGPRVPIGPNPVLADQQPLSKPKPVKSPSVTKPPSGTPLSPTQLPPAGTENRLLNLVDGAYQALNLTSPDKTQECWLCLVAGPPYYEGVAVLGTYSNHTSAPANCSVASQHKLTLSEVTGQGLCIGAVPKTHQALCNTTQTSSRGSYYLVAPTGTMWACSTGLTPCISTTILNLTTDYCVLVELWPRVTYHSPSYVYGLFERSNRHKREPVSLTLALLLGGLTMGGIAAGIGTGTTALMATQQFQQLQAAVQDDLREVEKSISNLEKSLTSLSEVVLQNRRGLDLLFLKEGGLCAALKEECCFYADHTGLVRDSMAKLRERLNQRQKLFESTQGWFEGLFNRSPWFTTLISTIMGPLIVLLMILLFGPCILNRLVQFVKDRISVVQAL

The target in assay [1] is mCAT-1 receptor expressed on HEK 293 cells (stable cell line) (mouse) (UniProt Q09143). Briefly: fluorescence microscopy of Mo-NP on HEK 293 cells with or without mCAT-1.
The target of assay [2] is red fluorescent protein (mStrawberry)-tagged mCAT-1 receptor expressed on cells (mouse) (UniProt Q09143). Briefly: confocal microscopy, blue fluorescent Mo-NP on cells expressing mStrawberry-tagged mCAT-1 and GFP-caveolin.

No constants are given. Whether binding was seen depends on the method and setting. Some results given as binding are weak or reduced against the parent protein; the word gives no strength.

For the substance “Moloney murine leukemia virus (Mo-MLV) envelope protein, in virus membranes coated onto 100 nm carboxylate-modified fluorescent nanoparticles (Mo-NP) (from UniProt P03385 34-649)”, the binding result in assay [1] and in assay [2] was “binds” each time.
